Experimental data: PubChem BioAssay AID1671195 (Yale University, 2021)
Shown is a random part of about 22,000 reagents tested. About 1,510 of all reagents (6.9%) were called active. 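Active includes knockdowns raising or lowering LDL uptake; positive z-scores mean more uptake, negative mean less.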 The numbers tell different reagents against one gene apart.

- Aim: 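Regulators of LDL receptor activity judged by labelled LDL uptake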 (primary screen)
- Cells: human Huh7 hepatoma cells
- Reagent: siRNA pool against human genes, 18 nM
- Duration: about 2 to 2.5 days of knockdown, then 8 h LDL uptake
- Conditions: DiI-labelled LDL at 30 µg/ml for 8 h, in lipoprotein-deficient serum medium
- Detection: 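Per-cell DiI-LDL intensity by automated imaging; well means scaled to the plate median and given as a robust z-score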
- Reading the numbers: robust z-score: higher = more LDL uptake after knockdown
- Active means: 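a gene counts as active if at least two replicate z-scores exceed ±2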

| gene symbol | reagent no. | robust z-score, replicate 1 | robust z-score, replicate 2 | robust z-score, replicate 3 | Outcome |
| --- | --- | --- | --- | --- | --- |
| CDC50B | 1 | -0.139 | 0.0222 | 0.84 | inactive |
| AKAP17BP | 1 | -0.0595 | -0.661 | -0.798 | inactive |
| TM6SF1 | 1 | -0.74 | 1.92 | -1.69 | inactive |
| LINC02120 | 1 | -0.605 | -0.641 | -0.513 | inactive |
| PIP4K2C | 1 | 2.52 | -0.0839 | 0.0392 | inactive |
| EIF2A | 1 | -0.403 | -0.633 | 0.41 | inactive |
| AR | 1 | 0.933 | -0.247 | 1.02 | inactive |
| PPIH | 1 | 1.6 | 0.389 | 0.932 | inactive |
| TANC2 | 1 | -1.52 | -0.765 | -1.69 | inactive |
| LHX6 | 1 | -1.58 | -1.76 | -1.68 | inactive |
| LOC341720 (retired record) | 1 | 0.526 | 0.667 | 0.268 | inactive |
| CSN1S2AP | 1 | -1.59 | -1.55 | -1.25 | inactive |
| LOC400843 (retired record) | 1 | -0.414 | -0.677 | -0.376 | inactive |
| ZFP82 | 1 | -0.327 | -0.719 | -0.544 | inactive |
| FAM217B | 1 | 3.7 | 4.06 | 4.55 | active |
| DMRTA1 | 1 | -0.293 | -0.619 | -0.549 | inactive |
| H1-3 | 1 | -1.03 | -0.693 | -1.11 | inactive |
| RRP12 | 1 | -0.334 | -0.32 | 0.342 | inactive |
| ALDH6A1 | 1 | -0.00404 | -0.0309 | -0.633 | inactive |
| ZNF506 | 1 | 0.731 | 1.04 | 0.201 | inactive |
| ZNF75A | 1 | 0.137 | 0.191 | -0.0367 | inactive |
| SPDYC | 1 | -0.585 | -0.755 | -0.948 | inactive |
| RPL7AP63 | 1 | -0.608 | -2.43 | -0.839 | inactive |
| SLC61A1 | 1 | -0.529 | -0.179 | -0.395 | inactive |
| TENT5C | 1 | 0.238 | 1.51 | -0.665 | inactive |
| FAM53A | 1 | -0.594 | -0.873 | -1.2 | inactive |
| LOC390773 (retired record) | 1 | 1.52 | 1.03 | 0.667 | inactive |
| IMPDH1 | 1 | 0.405 | 0.182 | 0.256 | inactive |
| DPY19L2P3 | 1 | -1.95 | -1.93 | -1.19 | inactive |
| ST7 | 1 | -1.76 | -1.42 | -2.4 | inactive |
| RTL4 | 1 | -1.21 | -0.99 | -0.861 | inactive |
| MZT2B | 1 | 0.209 | 0.424 | 0.873 | inactive |
| ST3GAL4 | 1 | 0.716 | 0.12 | -1.9 | inactive |
| CLIP2 | 1 | 0.307 | 1.05 | 0.693 | inactive |
| KCTD10 | 1 | 0.00509 | 1.05 | -0.365 | inactive |

Looked up above:
Under “robust z-score, replicate 2”, FAM53A shows -0.873
PPIH, robust z-score, replicate 3: 0.932
For “Outcome”, PIP4K2C shows inactive
For “robust z-score, replicate 2”, TM6SF1 is entered as 1.92
Entry for MZT2B in “Outcome”: inactive
Entry for ST3GAL4 in “robust z-score, replicate 1”: 0.716

Continued:
| gene symbol | reagent no. | robust z-score, replicate 1 | robust z-score, replicate 2 | robust z-score, replicate 3 | Outcome |
| --- | --- | --- | --- | --- | --- |
| GSEC | 1 | -0.701 | -0.676 | -0.849 | inactive |
| HARS1 | 1 | 0.567 | 0.254 | 0.867 | inactive |
| IER3IP1 | 1 | -1.25 | -1.14 | -0.862 | inactive |
| CALML3 | 1 | -0.67 | -0.448 | -0.319 | inactive |
| OGDHL | 1 | -0.276 | -0.00591 | -0.78 | inactive |
| LOC401915 (retired record) | 1 | -0.607 | -0.361 | 0.234 | inactive |
| CCDC158 | 1 | 1.97 | 1.77 | 2.06 | active |
| XDH | 1 | 0.322 | -0.481 | 0.581 | inactive |
| PIAS4 | 1 | -1.66 | -0.756 | -0.116 | inactive |
| KIF23 | 1 | -1.29 | -0.799 | -1.45 | inactive |
| SLC36A3 | 1 | -0.136 | -0.164 | -0.426 | inactive |
| LOC389183 (retired record) | 1 | 4.1 | 2.76 | 2.36 | active |
| PAICS | 1 | 1.13 | 0.121 | 0.732 | inactive |
| CYP2W1 | 1 | -1.94 | -1.88 | -1.82 | inactive |
| IL12RB1 | 1 | -0.574 | -1.08 | -0.999 | inactive |
| DND1 | 1 | -1.55 | -1.22 | -0.963 | inactive |
| LOC441044 (retired record) | 1 | 0.164 | -0.148 | 0.00661 | inactive |
| OSBPL5 | 1 | -1.46 | -1.28 | -1.46 | inactive |
| ADPGK | 1 | 0.383 | 0.236 | 0.89 | inactive |
| SLC25A42 | 1 | -0.099 | -0.383 | -0.394 | inactive |
| MIR646HG | 1 | 1.96 | 1.91 | 1.44 | inactive |
| STRA6 | 1 | 2.38 | 1.52 | 2.17 | active |
| AKR7A2 | 1 | -0.0126 | -0.151 | 0.389 | inactive |
| KIAA0087 | 1 | 0.276 | -0.505 | -1.42 | inactive |
| RAB44 | 1 | -0.851 | -1.26 | -1.21 | inactive |
| EFNA2 | 1 | 1.22 | 1.95 | 1.73 | inactive |
| FLJ41455 (retired record) | 1 | -0.841 | -1.34 | -1.08 | inactive |
| TMEM115 | 1 | -0.185 | -0.709 | -0.876 | inactive |
| CGGBP1 | 1 | 1.31 | -0.44 | 1.63 | inactive |
| AK9 | 1 | 1.82 | 1.11 | 1.59 | inactive |
| AK9 | 2 | 0.601 | 0.325 | 0.0288 | inactive |
| AK9 | 3 | -0.327 | -0.212 | 0.0787 | inactive |
| KCNQ5 | 1 | 0.0115 | -0.53 | -0.637 | inactive |
| CALHM1 | 1 | 0.559 | 0.488 | 0.795 | inactive |
| CDK16 | 1 | -1.28 | -1.01 | -1.61 | inactive |
| CCDC141 | 1 | 0.397 | 0.39 | 0.925 | inactive |
| CCDC141 | 2 | -1.16 | -1.48 | -1.51 | inactive |
| CNDP1 | 1 | 1.49 | 1.55 | 1.14 | inactive |
| ZEB2 | 1 | 0.925 | 2.78 | 1.18 | inactive |
| PCDHB3 | 1 | 0.0371 | 1.06 | 0.684 | inactive |
| LOC388065 (retired record) | 1 | -0.301 | 0.13 | -0.0736 | inactive |
| TSPAN2 | 1 | -0.818 | -1.61 | -1.47 | inactive |
| MBOAT2 | 1 | -0.519 | 0.438 | -0.78 | inactive |
| LINC01951 | 1 | 0.114 | -0.215 | -0.511 | inactive |
| HACD2 | 1 | 2.08 | 1.28 | 2.68 | active |
| SPATA45 | 1 | 1.5 | -0.376 | 1.21 | inactive |
| PSME2 | 1 | 0.0121 | -0.21 | -1.21 | inactive |
| PDK4 | 1 | -1.35 | -0.942 | -0.625 | inactive |
| FBH1 | 1 | 1.09 | 1.03 | 1.45 | inactive |
| SLC16A11 | 1 | 1.08 | 1.68 | 1.59 | inactive |
| LOC402188 (retired record) | 1 | -0.716 | -0.76 | -1 | inactive |
| LOC134541 (retired record) | 1 | -1.53 | 0.246 | 0.0384 | inactive |
